According to publication PMC5342150, “PRMT5 competitively binds to CDK4 to promote G1-S transition upon glucose induction in hepatocellular carcinoma” (Oncotarget, 2016):
No constants are given. Whether binding was seen depends on the method and setting. Binding seen in cells or lysates may run through a third protein. Some results given as binding are weak or reduced against the parent protein; the word gives no strength.

Sequences of proteins named here, by UniProt entry; tags and fusion partners are left off. A change or cut given only in a name is not applied to a line headed by its entry. A line that says so, or that is headed by a name, gives the form on record, which may keep a tag or linker. Residues count along the entry.
UniProt O14744: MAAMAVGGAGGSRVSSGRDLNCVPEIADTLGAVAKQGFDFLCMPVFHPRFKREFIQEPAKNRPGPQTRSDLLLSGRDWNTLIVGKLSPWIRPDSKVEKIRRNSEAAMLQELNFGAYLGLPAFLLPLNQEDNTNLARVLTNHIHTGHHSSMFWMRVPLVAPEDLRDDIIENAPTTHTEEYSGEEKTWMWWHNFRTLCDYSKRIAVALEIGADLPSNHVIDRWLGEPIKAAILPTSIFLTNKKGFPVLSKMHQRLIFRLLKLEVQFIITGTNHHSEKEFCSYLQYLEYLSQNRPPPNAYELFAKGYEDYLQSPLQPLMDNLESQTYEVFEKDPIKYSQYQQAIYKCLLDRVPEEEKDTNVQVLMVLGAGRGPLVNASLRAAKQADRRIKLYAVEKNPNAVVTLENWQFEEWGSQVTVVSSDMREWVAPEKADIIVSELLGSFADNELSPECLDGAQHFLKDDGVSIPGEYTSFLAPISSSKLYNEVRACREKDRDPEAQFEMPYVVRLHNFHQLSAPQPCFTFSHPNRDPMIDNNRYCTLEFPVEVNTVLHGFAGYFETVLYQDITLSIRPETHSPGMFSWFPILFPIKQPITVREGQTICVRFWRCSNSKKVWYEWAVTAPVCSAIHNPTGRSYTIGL
UniProt P11802: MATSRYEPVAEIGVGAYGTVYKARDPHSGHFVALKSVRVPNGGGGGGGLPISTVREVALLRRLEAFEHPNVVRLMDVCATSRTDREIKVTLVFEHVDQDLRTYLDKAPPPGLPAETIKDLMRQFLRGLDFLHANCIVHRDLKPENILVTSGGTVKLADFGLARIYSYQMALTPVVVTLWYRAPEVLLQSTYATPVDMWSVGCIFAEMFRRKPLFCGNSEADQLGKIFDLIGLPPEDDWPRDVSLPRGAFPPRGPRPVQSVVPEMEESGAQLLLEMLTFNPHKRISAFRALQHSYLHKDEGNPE
GST-fused CDK4 1-70 aa: residues 1-70 of P11802
Flag-tagged CDK4 Δ50-56 (P11802-1, form named): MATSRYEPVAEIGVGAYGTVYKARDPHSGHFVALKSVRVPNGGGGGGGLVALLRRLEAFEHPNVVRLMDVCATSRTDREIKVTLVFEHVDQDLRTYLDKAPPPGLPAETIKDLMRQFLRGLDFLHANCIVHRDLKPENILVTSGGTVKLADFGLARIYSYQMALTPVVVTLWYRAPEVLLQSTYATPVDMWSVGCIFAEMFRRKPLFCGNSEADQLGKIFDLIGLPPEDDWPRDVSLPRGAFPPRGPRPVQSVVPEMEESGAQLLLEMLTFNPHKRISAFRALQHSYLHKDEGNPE
UniProt P24385: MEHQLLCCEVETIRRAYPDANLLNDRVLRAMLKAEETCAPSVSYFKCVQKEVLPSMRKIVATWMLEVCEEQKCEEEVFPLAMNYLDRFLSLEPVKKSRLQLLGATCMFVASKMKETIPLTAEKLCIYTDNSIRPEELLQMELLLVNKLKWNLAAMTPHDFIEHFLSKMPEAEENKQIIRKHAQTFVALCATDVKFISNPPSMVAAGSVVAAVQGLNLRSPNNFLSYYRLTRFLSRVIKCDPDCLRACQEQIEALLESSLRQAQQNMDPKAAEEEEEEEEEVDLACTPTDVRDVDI
UniProt Q9BQA1: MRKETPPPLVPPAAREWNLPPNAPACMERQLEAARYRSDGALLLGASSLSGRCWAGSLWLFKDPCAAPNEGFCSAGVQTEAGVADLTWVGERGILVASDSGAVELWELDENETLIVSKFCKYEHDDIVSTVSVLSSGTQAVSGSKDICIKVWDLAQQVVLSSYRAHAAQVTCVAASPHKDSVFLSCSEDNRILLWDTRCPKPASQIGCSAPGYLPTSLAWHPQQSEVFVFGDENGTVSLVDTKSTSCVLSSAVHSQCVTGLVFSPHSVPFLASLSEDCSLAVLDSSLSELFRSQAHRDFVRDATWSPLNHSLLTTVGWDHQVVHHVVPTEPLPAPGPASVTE

Columns and labels:
[1] = molecular target: Flag-tagged PRMT5 (human) (UniProt O14744); experiment: co-IP; co-IP in the absence of anti-Flag antibody: endogenous proteins (Supplementary Figure S3A) and Flag-PRMT5 with HA-CDK4 (Supplementary Figure S3B)
[2] = molecular target: HA-tagged PRMT5 (human) (UniProt O14744); experiment: co-IP; HEK293T cells transfected with the tagged proteins for 48 h; extracts incubated with antibody-bound Protein A/G or anti-Flag M2 affinity gel for 3 h at 4°C; washed three times with IP buffer; Western blot
[3] = molecular target: Flag-tagged CDK4 (human) (UniProt P11802); experiment: co-IP; HEK293T cells co-transfected with Flag-CDK4, Myc-6×His-p16^INK4a (or CCND1) and HA-PRMT5 (0, 0.4 or 4 μg) for 24 h, cultured in high/low glucose media for 24 h; immunoprecipitated with anti-Flag M2 affinity gel; Western blot
[4] = molecular target: GST-fused CDK4 full-length (1-303 aa) (human) (UniProt P11802); experiment: pull-down; GST fusion proteins on glutathione-Sepharose 4B beads mixed with HEK293T cell lysis solution holding the overexpressed tagged PRMT5 for 3 h at 4°C; washed five times with IP buffer; Western blot; only the target purified
[5] = molecular target: Flag-tagged CDK4 R24A mutant (human) (UniProt P11802); experiment: co-IP; HEK293T cells transfected with the tagged proteins for 48 h; extracts incubated with antibody-bound Protein A/G or anti-Flag M2 affinity gel for 3 h at 4°C; washed three times with IP buffer; Western blot
[6] = molecular target: Flag-tagged CDK4 (human) (UniProt P11802); experiment: as above
[7] = molecular target: Flag-tagged CDK4 Δ50-56 (human) (UniProt P11802); experiment: as above
[8] = molecular target: Flag-tagged CDK4 (human) (UniProt P11802); experiment: co-IP; HepG2 cells co-transfected for 24 h in normal conditions, then cultured in no/low/high glucose media for 24 h; Western blot
[9] = molecular target: GST-fused CDK4 1-70 aa (human) (UniProt P11802); experiment: pull-down; GST fusion proteins on glutathione-Sepharose 4B beads mixed with HEK293T cell lysis solution holding the overexpressed tagged PRMT5 for 3 h at 4°C; washed five times with IP buffer; Western blot; only the target purified
[10] = molecular target: endogenous CDK4 (human (endogenous in HEK293T)) (UniProt P11802); experiment: co-IP; co-IP in the absence of anti-Flag antibody: endogenous proteins (Supplementary Figure S3A) and Flag-PRMT5 with HA-CDK4 (Supplementary Figure S3B)

Substance: HA-CDK4 (from UniProt P11802-1 1-303) (enzyme)
- binding [1]: binds

Substance: endogenous CDK4 (from UniProt P11802-1 1-303) (enzyme)
- binding [2]: binds

Substance: Myc-6×His-tagged CCND1 (from UniProt P24385 1-295)
- binding [3]: binds

Substance: Flag-tagged PRMT5 (from UniProt O14744 1-637) (enzyme)
- binding [4]: binds

Substance: Flag-tagged CDK4 (from UniProt P11802-1 1-303) (enzyme)
- binding [2]: binds

Substance: HA-tagged PRMT5 (from UniProt O14744 1-637) (enzyme)
- binding [5]: binds weakly
- binding [6]: binds
- binding [7]: binds
- binding [8]: binds
- binding [4]: binds
- binding [9]: binds

Substance: endogenous PRMT5 (from UniProt O14744 1-637) (enzyme)
- binding [10]: binds
- binding [6]: binds

Substance: HA-MEP50 (from UniProt Q9BQA1 1-342)
- binding [6]: binds
- binding [8]: binds
